The target of the assay is Tspan8 (rat (endogenous in rat tumor lines)). Description: co-IP; co-immunoprecipitation of exosome lysates from rat tumor lines.

Sequences of proteins named here, by UniProt entry; tags and fusion partners are left off. Residues count along the entry.
UniProt Q64632, residues 28-1807: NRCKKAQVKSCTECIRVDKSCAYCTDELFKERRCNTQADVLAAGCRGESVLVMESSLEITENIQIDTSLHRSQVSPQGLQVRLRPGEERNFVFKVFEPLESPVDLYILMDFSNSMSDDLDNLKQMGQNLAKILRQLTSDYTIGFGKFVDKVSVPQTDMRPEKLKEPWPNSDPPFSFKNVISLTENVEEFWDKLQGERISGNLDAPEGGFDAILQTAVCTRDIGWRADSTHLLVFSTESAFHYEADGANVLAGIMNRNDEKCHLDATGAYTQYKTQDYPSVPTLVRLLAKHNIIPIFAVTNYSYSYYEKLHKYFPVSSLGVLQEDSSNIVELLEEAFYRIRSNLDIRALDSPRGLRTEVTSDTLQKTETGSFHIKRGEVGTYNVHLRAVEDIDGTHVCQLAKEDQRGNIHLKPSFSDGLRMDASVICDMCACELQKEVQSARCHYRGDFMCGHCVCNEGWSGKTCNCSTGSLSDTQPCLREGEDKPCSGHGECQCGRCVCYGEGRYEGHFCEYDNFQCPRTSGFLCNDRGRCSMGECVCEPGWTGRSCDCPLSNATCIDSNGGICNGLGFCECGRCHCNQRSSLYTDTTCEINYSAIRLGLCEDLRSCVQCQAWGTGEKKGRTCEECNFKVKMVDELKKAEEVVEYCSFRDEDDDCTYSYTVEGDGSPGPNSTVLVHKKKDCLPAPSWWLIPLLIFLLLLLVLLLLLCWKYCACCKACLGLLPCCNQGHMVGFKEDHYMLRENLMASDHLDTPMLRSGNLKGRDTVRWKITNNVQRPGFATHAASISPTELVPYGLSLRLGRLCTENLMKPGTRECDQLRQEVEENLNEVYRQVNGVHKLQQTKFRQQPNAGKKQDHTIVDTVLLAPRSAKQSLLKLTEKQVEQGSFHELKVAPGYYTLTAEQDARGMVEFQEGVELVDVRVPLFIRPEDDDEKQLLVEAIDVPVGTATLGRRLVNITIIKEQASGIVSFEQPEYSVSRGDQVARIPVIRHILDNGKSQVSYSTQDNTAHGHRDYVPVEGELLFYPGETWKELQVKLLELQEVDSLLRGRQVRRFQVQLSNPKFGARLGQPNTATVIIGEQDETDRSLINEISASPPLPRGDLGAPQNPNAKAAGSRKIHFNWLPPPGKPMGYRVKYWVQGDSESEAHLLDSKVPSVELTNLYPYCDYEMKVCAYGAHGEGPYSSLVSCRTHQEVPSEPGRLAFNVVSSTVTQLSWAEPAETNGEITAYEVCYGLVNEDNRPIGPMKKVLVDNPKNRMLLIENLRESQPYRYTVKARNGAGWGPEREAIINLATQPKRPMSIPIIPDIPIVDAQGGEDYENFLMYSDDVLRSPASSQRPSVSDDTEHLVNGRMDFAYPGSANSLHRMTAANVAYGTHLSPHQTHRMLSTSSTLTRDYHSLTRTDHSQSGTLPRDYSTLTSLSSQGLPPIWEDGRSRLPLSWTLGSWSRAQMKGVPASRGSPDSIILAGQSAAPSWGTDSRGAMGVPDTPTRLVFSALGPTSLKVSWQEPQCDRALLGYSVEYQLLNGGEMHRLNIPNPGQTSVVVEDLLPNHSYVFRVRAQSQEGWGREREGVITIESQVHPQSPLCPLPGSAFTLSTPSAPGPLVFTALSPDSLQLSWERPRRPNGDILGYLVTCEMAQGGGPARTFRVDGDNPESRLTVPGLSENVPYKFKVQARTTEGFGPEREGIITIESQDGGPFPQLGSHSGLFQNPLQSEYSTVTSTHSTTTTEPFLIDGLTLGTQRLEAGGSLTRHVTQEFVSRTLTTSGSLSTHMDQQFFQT

Results are given in words; binding and its absence hold for the method and conditions named. Binding seen in cells or lysates may run through a third protein. Binding can be weak; no strength is given.

On to “beta4 integrin chain (from UniProt Q64632 28-1807)”, for which the binding entry is given as “binds”.

The record behind these values is paper PMC3760632.
